36 molecules from the supplement of paper PMC10735217 can be followed below.

The experiment relates to HEK293A TEAD-LUC reporter. The experiment can be described thus: TEAD-luciferase reporter activity (YAP activation), robust Z score vs plate; higher = stronger YAP/TEAD activation. The conditions noted are these: 24 h. For orientation: A reporter such as luciferase makes a cellular process visible.

Counter-ions that a name gives are not always drawn. The list shows a part of the results. Repeats in this data set agree poorly, so a single value says little.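 Human kidney-derived cells stably carry a construct in which eight TEAD-binding elements drive luciferase, measured by luminescence in a drug-repurposing library screen. A hit is any compound whose signal exceeds the plate mean by more than five robust Z scores.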

In the case of `COc1cc(-c2cnn3c(O)ncnc23)ccc1S(=O)c1ccccc1` (stereo unspecified), the TEAD-luciferase reporter activity (compound concentration: 200 nM) is inactive: 2.73, the TEAD-luciferase reporter activity (compound concentration: 2 uM) is active: 5.69 and the TEAD-luciferase reporter activity (compound concentration: 10 uM) was inactive: 0.86.
Turning to `CCOc1nc2cccc(C(=O)OCOC(=O)OC3CCCCC3)c2n1Cc1ccc(-c2ccccc2-c2nnn[nH]2)cc1.NS(=O)(=O)c1cc2c(cc1Cl)NCNS2(=O)=O`, the TEAD-luciferase reporter activity runs as follows: (compound concentration: 200 nM) inactive: 0.681; (compound concentration: 2 uM) inactive: 1.13; (compound concentration: 10 uM) inactive: 0.7.
The corresponding values for `COc1cc(N)c(Cl)cc1C(=O)NCCCS(=O)(=O)Cc1ccccc1` are inactive: -0.415, inactive: 0.683 and inactive: -1.66.
On to `CCCCCCCCCCCCCCCC[N+](C)(C)CCN(Cc1ccc(OC)cc1)c1ncccn1`, for which the TEAD-luciferase reporter activity runs as follows: (compound concentration: 200 nM) inactive: -0.124; (compound concentration: 10 uM) inactive: -1.09.
As for `CCCCCCN1CCN(/C(=N/CC(C)C)c2ccccc2)CC1`, the TEAD-luciferase reporter activity (compound concentration: 200 nM) was inactive: -1.42, the TEAD-luciferase reporter activity (compound concentration: 2 uM) is inactive: 1.83 and the TEAD-luciferase reporter activity (compound concentration: 10 uM) is inactive: 0.148.
On to `C/C(=C\c1csc(C)n1)[C@@H]1C[C@@H]2O[C@]2(C)CCC[C@H](C)[C@H](O)[C@@H](C)C(=O)C(C)(C)[C@@H](O)CC(=O)N1` [Ixabepilone], for which the TEAD-luciferase reporter activity runs as follows: (compound concentration: 200 nM) inactive: 0.125; (compound concentration: 2 uM) inactive: -1.2; (compound concentration: 10 uM) inactive: 0.193.
Consider `CC(=O)NO`, for which the TEAD-luciferase reporter activity (compound concentration: 200 nM) is inactive: 0.07, the TEAD-luciferase reporter activity (compound concentration: 2 uM) is inactive: -0.548 and the TEAD-luciferase reporter activity (compound concentration: 10 uM) was inactive: 0.367.
For `O=c1c2cnc3ccccc3c2[nH]n1-c1ccccc1`, in that order: inactive: -1.1, inactive: 0.236 and inactive: 2.76.
Regarding `CCC(=O)NS(=O)(=O)c1ccc(-c2c(-c3ccccc3)noc2C)cc1` [parecoxib sodium], the TEAD-luciferase reporter activity (compound concentration: 200 nM) was inactive: -1.13, the TEAD-luciferase reporter activity (compound concentration: 2 uM) is inactive: 2.76 and the TEAD-luciferase reporter activity (compound concentration: 10 uM) was inactive: -0.76.
Regarding `CNC(=O)[C@H](C/C=C/c1ccc(N(C)c2ncccn2)cc1)NC(=O)C1CCCCC1`, the TEAD-luciferase reporter activity by setting is: (compound concentration: 200 nM) inactive: 0.788; (compound concentration: 2 uM) inactive: 1.24; (compound concentration: 10 uM) inactive: -0.0572.
Take `CC(C)(N)C(=O)N[C@H](COCc1ccc(F)cc1F)C(=O)N1CCC2=NN(CC(F)(F)F)C(=O)[C@]2(Cc2ccccn2)C1`: the TEAD-luciferase reporter activity is, setting by setting: (compound concentration: 200 nM) inactive: -1.13; (compound concentration: 2 uM) inactive: 1.9; (compound concentration: 10 uM) inactive: 4.13.
As to `C=C(C)C(=O)NCC(=O)NCCCCCC(=O)NCC(=O)O[C@]1(CC)C(=O)OCc2c1cc1n(c2=O)Cc2cc3ccccc3nc2-1`, the TEAD-luciferase reporter activity was inactive: -2.86 (compound concentration: 200 nM), inactive: -2.3 (compound concentration: 2 uM) and inactive: -2.09 (compound concentration: 10 uM).
In the case of `CC(C)COC(=O)c1ccc(N)cc1`, the TEAD-luciferase reporter activity by setting is: (compound concentration: 200 nM) inactive: 1.44; (compound concentration: 2 uM) inactive: -1.1; (compound concentration: 10 uM) active: 6.44.
The corresponding values for `CC(=O)NC1C(O)OC(CO)C(O)C1O` (stereo unspecified) [N-Acetylmannosamine] are inactive: -1.28, inactive: -0.533 and inactive: 0.192.
Regarding `CSc1ccc(Sc2ccc(Cl)cc2CN(C)C)cc1`, the TEAD-luciferase reporter activity is inactive: -1.23 (compound concentration: 200 nM), inactive: -1.11 (compound concentration: 2 uM) and active: 7.47 (compound concentration: 10 uM).
Turning to `N=C(N)NC(=O)c1nc(Cl)c(N)nc1N` [Amiloride hydrochloride], the TEAD-luciferase reporter activity (compound concentration: 2 uM) was inactive: -1.21.
With `N=C(N)NC(=O)c1nc(Cl)c(N)nc1N`, the TEAD-luciferase reporter activity is, setting by setting: (compound concentration: 200 nM) inactive: 1.73; (compound concentration: 2 uM) inactive: -0.455; (compound concentration: 10 uM) inactive: -0.709.
Regarding `NCCCC[C@H](NC(=O)c1cccnc1)C(=O)N[C@H](CCC(=O)N1[C@H](C(=O)O)C[C@@H]2CCCC[C@@H]21)C(=O)O`, the TEAD-luciferase reporter activity (compound concentration: 200 nM) is inactive: -1.9, the TEAD-luciferase reporter activity (compound concentration: 2 uM) is inactive: -0.0375 and the TEAD-luciferase reporter activity (compound concentration: 10 uM) is inactive: 3.4.
As to `C=Cc1ccccc1S(=O)(=O)[O-]` [2-vinylbenzenesulfonate], the TEAD-luciferase reporter activity is inactive: 0.741 (compound concentration: 200 nM), inactive: -1.51 (compound concentration: 2 uM) and inactive: -1.32 (compound concentration: 10 uM).
`CN(C)CCN1C(=O)CC(c2ccccc2)Sc2ccccc21` (stereo unspecified): the TEAD-luciferase reporter activity is inactive: -0.586 (compound concentration: 200 nM), inactive: -1.21 (compound concentration: 2 uM) and inactive: 1.51 (compound concentration: 10 uM).
For the molecule `CC(=O)N(CCC(CCN1CCCCC1)(C(N)=O)c1ccccc1Cl)C(C)C` (stereo unspecified), the TEAD-luciferase reporter activity runs as follows: (compound concentration: 200 nM) inactive: 1.29; (compound concentration: 2 uM) inactive: 0.446; (compound concentration: 10 uM) inactive: -0.188.
On to `CN(C)CCOC(c1ccc(Cl)cc1)c1ccccn1` (stereo unspecified) [Carbinoxamine Maleate3505-38-2], for which the TEAD-luciferase reporter activity reads like this: (compound concentration: 200 nM) inactive: -0.987; (compound concentration: 10 uM) inactive: -0.915.
With `CN(C)CCOC(c1ccc(Cl)cc1)c1ccccn1` (stereo unspecified) [carbinoxamine, Elan], the TEAD-luciferase reporter activity (compound concentration: 2 uM) is inactive: 1.67.
With `Cc1ccc(C(=O)NC2CCN(Cc3cccc(-c4ccc(F)c(F)c4)c3)CC2)cc1`, the TEAD-luciferase reporter activity (compound concentration: 200 nM) was inactive: 2.73 and the TEAD-luciferase reporter activity (compound concentration: 10 uM) was inactive: -0.0944.
On to `CC(C)[C@H](NC(=O)CNC(=O)[C@H](CCC(N)=O)NC(=O)[C@H](C)N)C(=O)O`, for which the TEAD-luciferase reporter activity by setting is: (compound concentration: 200 nM) inactive: 0.446; (compound concentration: 2 uM) inactive: 0.456; (compound concentration: 10 uM) inactive: 0.219.
For `[O-][n+]1ccccc1SSc1cccc[n+]1[O-]` [bispyrithione], in that order: inactive: -0.305, inactive: -3.84 and inactive: -3.8.
Regarding `CCOc1cc2ncc(C#N)c(Nc3ccc(OCc4cccc(F)c4)c(Cl)c3)c2cc1NC(=O)/C=C/CN(C)C`, the TEAD-luciferase reporter activity runs as follows: (compound concentration: 200 nM) inactive: -1.6; (compound concentration: 2 uM) inactive: -0.068; (compound concentration: 10 uM) inactive: -2.26.
On to `COC1(/C=C/COCc2ccc3c(ccc(=O)n3C)c2)CCOC(C)C1` (stereo unspecified), for which the TEAD-luciferase reporter activity by setting is: (compound concentration: 200 nM) inactive: 1.42; (compound concentration: 2 uM) inactive: -0.388; (compound concentration: 10 uM) inactive: -1.36.
As to `C=C1C[C@H]2[C@@H]3CCC4=CC(=O)CC[C@@H]4[C@H]3CC[C@]2(C)[C@@]1(OC(C)=O)C(C)=O` [Elcometrine], the TEAD-luciferase reporter activity is inactive: -1.69 (compound concentration: 200 nM), inactive: 0.503 (compound concentration: 2 uM) and active: 11.4 (compound concentration: 10 uM).
Turning to `CC[C@H]1[C@@H](O)[C@@H]2[C@H](CC[C@]3(C)[C@@H]([C@H](C)CCOS(=O)(=O)[O-])CC[C@@H]23)[C@@]2(C)CC[C@@H](O)C[C@@H]12`, the TEAD-luciferase reporter activity runs as follows: (compound concentration: 200 nM) inactive: -1.54; (compound concentration: 2 uM) inactive: -0.787; (compound concentration: 10 uM) inactive: 4.33.
As to `Cc1noc(/C(=C/c2ccccc2-c2cc(C(C)(C)S(C)(=O)=O)cc3cccnc23)c2ccc(S(C)(=O)=O)cc2)n1`, the TEAD-luciferase reporter activity by setting is: (compound concentration: 200 nM) inactive: -1.31; (compound concentration: 2 uM) inactive: 0.296; (compound concentration: 10 uM) inactive: 2.61.
The corresponding values for `CCN1CCC(CN2c3ccccc3Sc3ccccc32)C1` (stereo unspecified) are inactive: 1.81, inactive: 2.52 and active: 7.15.
The corresponding values for `Oc1ccc2ccccc2c1` are inactive: 0.095, inactive: -0.0599 and inactive: 0.412.
Take `COc1ccc(OCCCN(C)CCOc2ccc3c(c2)OCO3)c(C2Sc3ccccc3N(C)C2=O)c1` (stereo unspecified): the TEAD-luciferase reporter activity is inactive: -2 (compound concentration: 200 nM), inactive: 2.31 (compound concentration: 2 uM) and inactive: -0.0212 (compound concentration: 10 uM).
As for `[O-][n+]1cccc(C(Cl)=NOCC(O)CN2CCCCC2)c1` (stereo unspecified), the TEAD-luciferase reporter activity reads like this: (compound concentration: 200 nM) inactive: -0.373; (compound concentration: 2 uM) inactive: 0.224; (compound concentration: 10 uM) inactive: 1.02.
On to `C[C@H](CCC(=O)NCCS(=O)(=O)O)[C@H]1CC[C@H]2[C@@H]3C[C@H](O)[C@@H]4C[C@H](O)CCC4(C)[C@H]3CCC12C` (stereo partly specified) [Taurohyodeoxycholic Acid], for which the TEAD-luciferase reporter activity is, setting by setting: (compound concentration: 200 nM) inactive: -0.207; (compound concentration: 2 uM) inactive: -0.48; (compound concentration: 10 uM) inactive: 0.265.
